Test results published in article PMC12670160, “A drug-repurposing screen of FDA- and EMA-approved drugs identifies two NF-κB inhibitors active against eumycetoma” (Journal of Antimicrobial Chemotherapy, 2025).
Where a name gives a salt, the structure may show the parent alone. Read-outs that look alike come from different tables or passages of the source. Hit rate of the full screen: of about 5,300 compounds, about 130 (2.5%) showed an effect of 50% or more. This is one part of the list.

Test system: M. mycetomatis strain mm55
Conditions: 96 h, 2 µM

| SMILES | % viability (m. mycetomatis hyphae) | % viability (primary screen, metabolic activity vs growth control, inhibitor) |
| --- | --- | --- |
| COc1cc(OC)c(/C=C/S(=O)(=O)Cc2ccc(OC)c(OP(=O)(O)O)c2)c(OC)c1 [ONC0002087, briciclib] | 78.31% |  |
| N#CN1CCCC1 [ONC0002979, pyrrolidine1carbonitrile] | 75.45% |  |
| CC(N)Cc1c[nH]c2ccc(O)cc12 (centres unmarked) [ONC0001623, alphamethylserotonin] | 78.58% |  |
| COc1cc2c(cc1OC)[C@@]13CCN4CC5=CCO[C@H]6CC(=O)N2[C@H]1[C@H]6[C@H]5C[C@H]43 [ONC0003202, brucine] | 95.04% |  |
| CC(C)(C)NCC(O)c1cc(Cl)c(N)c(Cl)c1 (centres unmarked) [ONC0002379, clenbuterol hydrochloride] | 74.45% |  |
| COC(=O)C1=CCCN(C)C1 [ONC0000647, arecoline hydrobromide] | 79.19% |  |
| CC(CN)CC(=O)O (centres unmarked) [ONC0000097, 3methylgaba] | 107.5% |  |
| Cc1ccccc1CN1C(=O)C2=C(CCN(Cc3ccccc3)C2)N2CCN=C12 [ONC0003867, onc201] | 81.96% |  |
| C=C1C(=O)O[C@@H]2[C@H]3C(C)=CC[C@@]34O[C@@]4(C)CC[C@@H]12 [ONC0001228, arglabin] | 103.5% |  |
| FC(F)OC(F)(F)C(F)Cl (centres unmarked) [ONC0002958, enflurane] | 111.8% |  |
| CCC1(CC)C(=O)C=CNC1=O [ONC0002888, pyrithyldione] | 105.3% |  |
| C[C@]12CCC(=O)C=C1CCC1C2CC[C@@]2(C)C1CC[C@@H]2O (some centres unmarked) [ONC0003315, testosterone] | 85.5% |  |
| C=CCN1CC[C@@]2(C)c3cc(O)ccc3C[C@H]1[C@H]2C [ONC0000854, skf10047] | 56.88% |  |
| Clc1ccc(CO/N=C(\Cn2ccnc2)c2ccc(Cl)cc2Cl)c(Cl)c1 [Oxiconazole nitrate] | 0.8852% |  |
| NCCc1cc(O)c(O)cc1O [ONC0000567, oxidopamine hydrochloride] | 71.43% |  |
| Clc1cccc(N2CCNCC2)c1 [ONC0001948, 13chlorophenylpiperazinehcl] | 73.05% |  |
| CC[N+](CC)(CCCNC1=CC(=O)C(NCCC[N+](CC)(CC)Cc2ccccc2)=CC1=O)Cc1ccccc1 [ONC0001930, benzoquinoniumdibromide] | 91.76% |  |
| O=P(O)(NCCCl)NCCCl [ONC0001217, palifosfamide] | 150.6% |  |
| C[C@H]1CCC/C=C/[C@@H]2C[C@H](O)C[C@H]2[C@H](O)/C=C/C(=O)O1 [ONC0000753, brefeldina] |  | 102% |
| CCOC(=O)c1c(/C(C#N)=C\N)c2ccc(Cl)c(Cl)c2n1C [ONC0001155, khcb19] | 95.74% |  |
| C[C@]12CCC(=O)C[C@@H]1CC[C@@H]1[C@@H]2CC[C@]2(C)[C@@H](O)CC[C@@H]12 [ONC0001905, dihydrotestosterone] | 67.61% |  |

Fetched by structure from the entries so far (two):

| SMILES | % viability (m. mycetomatis hyphae) | % viability (primary screen, metabolic activity vs growth control, inhibitor) |
| --- | --- | --- |
| CC[N+](CC)(CCCNC1=CC(=O)C(NCCC[N+](CC)(CC)Cc2ccccc2)=CC1=O)Cc1ccccc1 [ONC0001930, benzoquinoniumdibromide] | 91.76% |  |
| CC(N)Cc1c[nH]c2ccc(O)cc12 (centres unmarked) [ONC0001623, alphamethylserotonin] | 78.58% |  |

Later entries

| SMILES | % viability (m. mycetomatis hyphae) | % viability (primary screen, metabolic activity vs growth control, inhibitor) |
| --- | --- | --- |
| COc1ccc(CCN)cc1OC [ONC0002315, homoveratrylamine] | 62.69% |  |
| Oc1ccc2c3c1O[C@H]1c4[nH]c5c(c4C[C@@]4(O)[C@@H](C2)N(CC2CC2)CC[C@]314)C[C@@]1(O)[C@H]2Cc3ccc(O)c4c3[C@@]1(CCN2CC1CC1)[C@H]5O4 [ONC0002653, norbinaltorphiminedihydrochloride] | 66% |  |
| C[C@@H]([C@H](O)c1ccccc1)N(C)C [ONC0005359, nmethyl ephedrine 1r2s] | 56.78% |  |
| CC(=O)Nc1ccc(Cc2ccc(NC(C)=O)cc2)cc1 [ONC0005081, fh1brdk4477] | 82.01% |  |
| O=C1NC(=S)NC(=O)C1C(=O)Nc1ccccc1 [ONC0002959, merbarone] | 104.2% |  |
| Cc1[nH]c2ccc(O)cc2c1CCN [ONC0000021, 2methyl5hydroxytryptamine] | 80.31% |  |
| O=Cc1cn(Cc2ccc(Cl)cc2)c2ccccc12 [ONC0001687, oncrasin1] | 52.5% |  |
| CCOC(=O)Nc1ccc(NCc2c(C)cc(C)cc2C)cc1N [ONC0001805, aa29504] | 96.37% |  |
| CC12CC(C=O)C(=O)CC1CCC1C2CCC2(C)C1CCC2(C)O (centres unmarked) [ONC0004581, oxymetholone] | 89.09% |  |
| CCC[C@@H]1CC(=O)N([C@@H](CC)C(N)=O)C1 [ONC0001158, brivaracetam] | 114.4% |  |
| CCN1C[C@]2(OC(=O)c3ccccc3NC(C)=O)CC[C@@H](OC)[C@]34C1[C@@H](C[C@H]23)[C@@]1(O)C[C@H](OC)[C@H]2C[C@H]4[C@]1(O)[C@H]2OC [ONC0004594, lappaconite hydrobromide] | 89.13% |  |
| CO[C@H]1CC=C2CCN3CCC4=C(CC(=O)OC4)[C@]23C1 [ONC0001996, dihydroerythroidinehbr] | 88.39% |  |
| CC(=O)N(C)c1cc(-c2ccnc3c(C(=O)c4cccs4)cnn23)ccc1F [ONC0001266, lorediplon] | 68.29% |  |
| NC(=O)C[S@@+]([O-])C(c1ccccc1)c1ccccc1 [ONC0003958, armodafinil] | 72.8% |  |
| O=C(Nc1ccccc1F)N[C@H]1N=C(c2ccccc2)c2ccccc2NC1=O [ONC0000966, rsv604] | 70.36% |  |
| CC(=O)[C@H]1CC[C@H]2[C@@H]3CCC4C[C@](C)(O)CC[C@]4(C)[C@H]3CC[C@]12C (some centres unmarked) [ONC0003017, ganaxolone] | 117.2% |  |
| C[N+](C)(C)CC#CCN1CCCC1=O [ONC0001461, oxotremorinem] | 65.68% |  |
| O=C1C=C2C=C[C@@H]3C[C@@]2(O1)[C@H]1CCCCN31 [ONC0004197, securinine] | 79.41% |  |
| CC(=O)C1=C(O)[C@@H]2[C@H]3c4c[nH]c5cccc(c45)C[C@H]3C(C)(C)N2C1=O [ONC0000252, cyclopiazonicacid] | 66.61% |  |
| CN1CCC(c2c[nH]c3ccc(O)cc23)CC1 [ONC0001612, brl54443] | 78.58% |  |
